Several values for one entry are separate records, joined by “and”; a condition that tells them apart may be missing. Identical values can stand only once. Counter-ions that a name gives are not always drawn. This continues a long series; more values of the same kind are listed elsewhere.
Assay: Pharmacokinetic test in rats, gavage administration
Assay type: in vivo, SD rats
Details: 20 mg/kg oral, 0.5 h, individual rats 1-6
Method: The preferred compound of the present disclosure was assessed in rats for its pharmacokinetic profile.
SD rats, male and female, weighing 150 to 250 g
Mobile phase: 10 mM ammonium formate aqueous solution:methanol=15:85
The ionization source was electrospray ionization source. The detection mode was positive mode. Multiple reaction monitoring (MRM) was used as the scanning mode. The ion reaction for the quantitative analysis was the following: m/z was 305.2\150.0 for XX, and 256.1\167.1 for diphenhydramine (the internal standard).
XX or YY was orally administered with single dose of 20 mg/kg to six SD rats, one half of which were male and the other half was female. XX or YY was dissolved in 10% hydroxypropyl-β-cyclodextrin. […]
After the blood collection, the tubes were immediately gently turned upside down at least five times to ensure sufficient mixing, and placed on ice. Heparin was added for anticoagulation. The samples were centrifuged at 8000 rpm for 5 min to separate serum from erythrocyte. The serum was transferred with a pipettor to 2 mL polypropylene (PP) tubes, which were marked with the name of the compound and the time points, and stored in a refrigerator at −40° C. before LC-MS analysis. Samples with high concentrations were diluted with rat blank plasma.
2.5 μL of Meth-H2O and 5 μL of the internal standard solution (20 ng/mL, IS) were added to 50 μL of the plasma. […]

Cc1ccc(Sc2ccccc2N2CCNCC2)c(C)c1 [YY, 1-[2-(2,4-dimethyl-phenylsulfanyl)-phenyl]piperazine]
Concentrations in Plasma of Rats after Oral Administration: 57.2 ng/mL and 45.8 ng/mL

[2H]C([2H])([2H])c1ccc(Sc2ccccc2N2CCNCC2)c(C([2H])([2H])[2H])c1 [XX, 1-{2-[2,4-bis(trideuteriomethyl)phenylsulfanyl]phenyl}piperazine hydrobromic acid salt]
Concentrations in Plasma of Rats after Oral Administration: 45.9 ng/mL and 53.2 ng/mL and 41.6 ng/mL and 65.2 ng/mL and 88.9 ng/mL and 82.7 ng/mL
